Results from patent US20260097133A1, “EPIGENETIC EDITING TOOL FOR TARGETING HEPATITIS B VIRUS GENE” (priority 2023, published 2026).
Some of these results come from one statement about several compounds together.

test system: type D hepatitis B virus (GenBank: U95551); assay: Candidate sgRNA effect validation in HBV-infected primary hepatocytes (PHH), Example 4; format: cell-based; settings: HBsAg, HBeAg/HBcAg and HBV DNA in supernatant; 14 days after infection; 2.5 μg/ml, EPIREG:sgRNA 1:1
Description: A primary hepatocyte (PHH) cell line (WuXi AppTec, M00995-P) infected with type D hepatitis B virus (GenBank: U95551) was used in this validation experiment. Based on the screening results of the three libraries in Example 3 and combined with factors such as conservation, the 20 sgRNAs shown in the table below were selected to prepare the pharmaceutical composition provided in the present application and perform epigenetic editing in the primary hepatocytes to validate the inhibitory effect of the screened candidate sgRNAs on HBV gene expression.
Two days after primary hepatocytes were infected with HBV, lipid nanoparticles (LNPs) (LNP preparation reference: https://doi.org/10.1038/s41586-021-03534-y) were used to deliver the composition comprising the mRNA encoding EPIREG (sequence: SEQ ID NO: 1191) and each of the above-mentioned sgRNAs into primary hepatocytes (administration dose was 2.5 μg/ml, the mass ratio of EPIREG to sgRNA was 1:1). Myrcludex B (provided by WuXi AppTec, C9023GE070-1/PE0723) was used as a positive control. Myrcludex B could inhibit HBV infection of hepatocytes. The supernatant of the culture medium was collected every two days after administration in each group, and the expression levels of HBV surface antigen (HBsAg), core antigen (HBcAg/HBeAg) and HBV DNA secreted by the cells were detected until 14 days after infection. Cell samples were collected, DNA and RNA in the cells were extracted, and the level of HBV mRNA was detected. (Specific detection methods were performed according to the following kit instructions: HBsAg ELISA kit, Antu-CL 0310; HBeAg ELISA kit, Antu-CL 0312; RNeasy 96 Kit (12), QIAGEN #74182)

Sequence	reduction of expression of HBV virus antigen and DNA (inhibition rate) [%]
AGGAGTTCCGCAGTATGGAT [BSG35]	≥ 80
ACTACTGTTGTTAGACGACG (listed as DNA, chemistry not fully specified) [D199]	≤ 50
GACATGAACAAGAGATGATT (listed as DNA, chemistry not fully specified) [D75]	≥ 80
